Measured values published in patent US20200123265A1 (AGENUS, published 2020).
Results are given in words; binding and its absence hold for the method and conditions named. Some entries that bind do so weakly or less than the wild type.

T1: biotinylated GITR (GITR-bio) (UniProt Q9Y5U5)
T1 sequence (biotinylated, looked up): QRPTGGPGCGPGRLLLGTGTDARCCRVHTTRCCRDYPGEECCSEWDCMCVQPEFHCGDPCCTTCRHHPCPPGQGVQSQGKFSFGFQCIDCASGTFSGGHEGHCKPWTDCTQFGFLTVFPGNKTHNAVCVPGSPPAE


Key:
[1] = target: T1, biotinylated GITR (GITR-bio); test: flow cytometry, antibody on 1624-5 pre-B cells, GITR-bio detected with streptavidin-PE
[2] = target: T1, biotinylated GITR (GITR-bio); test: flow cytometry competition: 2 µg antibody pre-incubated with GITR-bio, loss of binding to cells expressing 231-32-15

Row | binding [1] | binding [2] | Binder
1 | binds |  | chimeric parental 231-32-15 antibody (antibody, V domains shown, elsewhere it was used as soluble antibody) VH: QVQLLQSGTELVRPGVSVKISCKGSGYTFTDYAMYWVKQSHAKSLEWIGVIRTYSGDVTYNQKFKDKATMTVDKSSSIAYMELARLSSEDSAIYYCAKSGTVRGFAYWGQGTLVTVSS VL: DIVMTQSPSSLTVTAGEKVIMSCKSSQSLLNSGNQKNYLTWYQQKPGQPPKLLIYWASTRESGVPDRFTGSGSGTDFTLTISSVQAEDLAVYHCQNDYSYPYTFGGGTKLEIK
2 |  | binds | pab1875 (antibody, V domains shown) VH: QVQLVQSGAEVKKPGASVKVSCKGSGYTFTDYAMYWVRQAPGQGLEWIGVIRTYSGDVTYNQKFKDRATMTVDKSISTAYMELSRLRSDDTAVYYCAKSGTVRGFAYWGQGTLVTVSS VL: DIVMTQSPPTLSLSPGERVTLSCKSSQSLLNSGNQKNYLTWYQQKPGQAPRLLIYWASTRESGIPARFSGSGSGTDFTLTISSLQPEDFAVYHCQNDYSYPYTFGQGTKLEIK
3 |  | binds | pab1876 (antibody, human IgG1, V domains shown, Human IgG1 with T109S (Kabat) in the light chain constant domain) VH: QVQLVQSGAEVKKPGASVKVSCKGSGYTFTDYAMYWVRQAPGQGLEWIGVIRTYSGDVTYNQKFKDRATMTVDKSISTAYMELSRLRSDDTAVYYCAKSGTVRGFAYWGQGTLVTVSS VL: DIVMTQSPDSLAVSLGERATINCKSSQSLLNSGNQKNYLTWYQQKPGQPPKLLIYWASTRESGVPDRFSGSGSGTDFTLTISSLQAEDVAVYHCQNDYSYPYTFGQGTKLEIKR
